Article PMC12169211

Test system: thrombin (biotinylated, immobilized on streptavidin microparticles)
Test: microparticle flow cytometry, trigger displacement
Settings: Thrombin-microparticles incubated with 0.5-200 nM FAM-aptamer, washed with DPBS, binding buffer, pH and temperature not stated, protein details: biotin, label: 5' FAM on 15-mer strand, folded or branched DNA; for binding signal (% aptamer dissociated): DNA trigger of 29-mer-Sticky-TH (S5)

Row | Sequence | binding signal (% aptamer dissociated) (0.5:1, 500 nM THBA) | binding signal (% aptamer dissociated) (5:1, 500 nM THBA) | binding result (DNA triggers of 15-mer (S3) and 29-mer (S4), 0.5:1 to 10:1 to aptamer, 500 nM HBA)
1 | GGTTGGTGTGGTTGGTTTTTGACCCTGCGTACC / AGTCCGTGGTAGGGCAGGTTGGGGTGACTTTTTTGGTACGCAGGTCCGTTA | 50 | 80 | 
2 | GGTTGGTGTGGTTGGTTTTTGACCCTGCGTACC / AGTCCGTGGTAGGGCAGGTTGGGGTGACTTTTTTGGTACGCAGGTC |  |  | binds more weakly

For at least one entry, the source does not settle the construct or the ends of the probe. Weaker means in comparison with the reference protein, sequence or condition of that experiment. Whether high values mean tight binding is not given here for every scale.
